Test results reported in publication PMC4476650.
The exact form of at least one protein or probe is not confirmed. Where cells or extracts were used, other partners may take part. For part of these data: At least one verdict was read from the data and is not stated in words by the source. Tags and fusion partners may be left off the protein sequences shown. For part of these data: The direction of at least one scale is not stated here.

Columns and labels:
[1] = biological target: T1, serum response factor (SRF) (rat (neonatal rat ventricular myocytes)) (UniProt D3ZHH8); assay: competition with a labelled probe; details: unlabelled 100x probe as competitor; 10 ug nuclear extract, room temperature 20 min, 5% polyacrylamide gel in 0.5x TBE; binding buffer, salt and pH not given; protein in an extract; label: 32P (alpha-32P-dCTP)
T1 sequence (looked up, limits assumed): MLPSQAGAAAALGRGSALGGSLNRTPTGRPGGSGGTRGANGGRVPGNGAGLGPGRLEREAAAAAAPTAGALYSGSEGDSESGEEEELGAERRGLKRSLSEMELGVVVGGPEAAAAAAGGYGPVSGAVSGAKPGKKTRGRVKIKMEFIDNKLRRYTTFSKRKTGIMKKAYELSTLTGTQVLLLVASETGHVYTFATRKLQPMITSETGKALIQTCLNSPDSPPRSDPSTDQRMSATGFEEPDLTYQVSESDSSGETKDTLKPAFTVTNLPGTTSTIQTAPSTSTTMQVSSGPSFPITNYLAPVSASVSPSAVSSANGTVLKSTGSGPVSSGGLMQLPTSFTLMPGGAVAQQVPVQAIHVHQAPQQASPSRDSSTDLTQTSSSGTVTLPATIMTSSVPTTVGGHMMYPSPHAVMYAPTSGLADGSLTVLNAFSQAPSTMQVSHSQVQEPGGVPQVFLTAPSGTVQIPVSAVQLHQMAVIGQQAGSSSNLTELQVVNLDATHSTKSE

[2] = biological target: T1, serum response factor (SRF) (rat (neonatal rat ventricular myocytes)); assay: EMSA supershift; details: SRF antibody 4 ug, NRVM nuclear extract; 10 ug nuclear extract, room temperature 20 min, 5% polyacrylamide gel in 0.5x TBE; binding buffer, salt and pH not given; protein in an extract; label: 32P (alpha-32P-dCTP)
[3] = biological target: T1, serum response factor (SRF) (rat (neonatal rat ventricular myocytes)); assay: EMSA; details: Phactr1 adenovirus 1 MOI, NRVM nuclear extract vs LacZ; 10 ug nuclear extract, room temperature 20 min, 5% polyacrylamide gel in 0.5x TBE; binding buffer, salt and pH not given; protein in an extract; label: 32P (alpha-32P-dCTP)

## ACAGGATGTCCATATTAGGACATCT (double strand) [rat c-fos SRF probe]
[1]
  binding result: binds
[2]
  binding result: binds
[3]
  binding signal: 1.7 fold vs LacZ
